Paper PMC10629824

Amino acid sequences for entries named in this document (tags omitted). A change or cut given only in a name is not applied to a line headed by its entry.
UniProt Q38DX5: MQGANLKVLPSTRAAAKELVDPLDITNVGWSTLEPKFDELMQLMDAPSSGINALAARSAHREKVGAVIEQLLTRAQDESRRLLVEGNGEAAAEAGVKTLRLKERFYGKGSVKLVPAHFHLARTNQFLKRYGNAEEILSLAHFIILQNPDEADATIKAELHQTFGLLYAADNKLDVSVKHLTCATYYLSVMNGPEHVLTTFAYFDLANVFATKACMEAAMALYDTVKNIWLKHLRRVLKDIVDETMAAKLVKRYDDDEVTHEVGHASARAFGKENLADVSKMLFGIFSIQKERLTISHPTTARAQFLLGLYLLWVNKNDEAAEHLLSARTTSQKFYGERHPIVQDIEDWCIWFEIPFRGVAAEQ
UniProt Q57ZB2: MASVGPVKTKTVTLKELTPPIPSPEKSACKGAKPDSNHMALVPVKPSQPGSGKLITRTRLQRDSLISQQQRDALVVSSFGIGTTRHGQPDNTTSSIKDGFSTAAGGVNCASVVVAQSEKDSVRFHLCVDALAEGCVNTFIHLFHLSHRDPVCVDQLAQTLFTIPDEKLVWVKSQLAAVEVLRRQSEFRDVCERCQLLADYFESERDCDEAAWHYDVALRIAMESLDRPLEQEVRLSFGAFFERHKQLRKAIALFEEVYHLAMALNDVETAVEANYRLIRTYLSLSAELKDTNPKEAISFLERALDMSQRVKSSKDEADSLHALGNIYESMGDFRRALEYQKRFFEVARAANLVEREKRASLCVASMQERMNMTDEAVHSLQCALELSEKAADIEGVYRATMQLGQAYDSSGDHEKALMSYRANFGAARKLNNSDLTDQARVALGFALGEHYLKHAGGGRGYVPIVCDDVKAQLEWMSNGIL
UniProt E9Q8T7: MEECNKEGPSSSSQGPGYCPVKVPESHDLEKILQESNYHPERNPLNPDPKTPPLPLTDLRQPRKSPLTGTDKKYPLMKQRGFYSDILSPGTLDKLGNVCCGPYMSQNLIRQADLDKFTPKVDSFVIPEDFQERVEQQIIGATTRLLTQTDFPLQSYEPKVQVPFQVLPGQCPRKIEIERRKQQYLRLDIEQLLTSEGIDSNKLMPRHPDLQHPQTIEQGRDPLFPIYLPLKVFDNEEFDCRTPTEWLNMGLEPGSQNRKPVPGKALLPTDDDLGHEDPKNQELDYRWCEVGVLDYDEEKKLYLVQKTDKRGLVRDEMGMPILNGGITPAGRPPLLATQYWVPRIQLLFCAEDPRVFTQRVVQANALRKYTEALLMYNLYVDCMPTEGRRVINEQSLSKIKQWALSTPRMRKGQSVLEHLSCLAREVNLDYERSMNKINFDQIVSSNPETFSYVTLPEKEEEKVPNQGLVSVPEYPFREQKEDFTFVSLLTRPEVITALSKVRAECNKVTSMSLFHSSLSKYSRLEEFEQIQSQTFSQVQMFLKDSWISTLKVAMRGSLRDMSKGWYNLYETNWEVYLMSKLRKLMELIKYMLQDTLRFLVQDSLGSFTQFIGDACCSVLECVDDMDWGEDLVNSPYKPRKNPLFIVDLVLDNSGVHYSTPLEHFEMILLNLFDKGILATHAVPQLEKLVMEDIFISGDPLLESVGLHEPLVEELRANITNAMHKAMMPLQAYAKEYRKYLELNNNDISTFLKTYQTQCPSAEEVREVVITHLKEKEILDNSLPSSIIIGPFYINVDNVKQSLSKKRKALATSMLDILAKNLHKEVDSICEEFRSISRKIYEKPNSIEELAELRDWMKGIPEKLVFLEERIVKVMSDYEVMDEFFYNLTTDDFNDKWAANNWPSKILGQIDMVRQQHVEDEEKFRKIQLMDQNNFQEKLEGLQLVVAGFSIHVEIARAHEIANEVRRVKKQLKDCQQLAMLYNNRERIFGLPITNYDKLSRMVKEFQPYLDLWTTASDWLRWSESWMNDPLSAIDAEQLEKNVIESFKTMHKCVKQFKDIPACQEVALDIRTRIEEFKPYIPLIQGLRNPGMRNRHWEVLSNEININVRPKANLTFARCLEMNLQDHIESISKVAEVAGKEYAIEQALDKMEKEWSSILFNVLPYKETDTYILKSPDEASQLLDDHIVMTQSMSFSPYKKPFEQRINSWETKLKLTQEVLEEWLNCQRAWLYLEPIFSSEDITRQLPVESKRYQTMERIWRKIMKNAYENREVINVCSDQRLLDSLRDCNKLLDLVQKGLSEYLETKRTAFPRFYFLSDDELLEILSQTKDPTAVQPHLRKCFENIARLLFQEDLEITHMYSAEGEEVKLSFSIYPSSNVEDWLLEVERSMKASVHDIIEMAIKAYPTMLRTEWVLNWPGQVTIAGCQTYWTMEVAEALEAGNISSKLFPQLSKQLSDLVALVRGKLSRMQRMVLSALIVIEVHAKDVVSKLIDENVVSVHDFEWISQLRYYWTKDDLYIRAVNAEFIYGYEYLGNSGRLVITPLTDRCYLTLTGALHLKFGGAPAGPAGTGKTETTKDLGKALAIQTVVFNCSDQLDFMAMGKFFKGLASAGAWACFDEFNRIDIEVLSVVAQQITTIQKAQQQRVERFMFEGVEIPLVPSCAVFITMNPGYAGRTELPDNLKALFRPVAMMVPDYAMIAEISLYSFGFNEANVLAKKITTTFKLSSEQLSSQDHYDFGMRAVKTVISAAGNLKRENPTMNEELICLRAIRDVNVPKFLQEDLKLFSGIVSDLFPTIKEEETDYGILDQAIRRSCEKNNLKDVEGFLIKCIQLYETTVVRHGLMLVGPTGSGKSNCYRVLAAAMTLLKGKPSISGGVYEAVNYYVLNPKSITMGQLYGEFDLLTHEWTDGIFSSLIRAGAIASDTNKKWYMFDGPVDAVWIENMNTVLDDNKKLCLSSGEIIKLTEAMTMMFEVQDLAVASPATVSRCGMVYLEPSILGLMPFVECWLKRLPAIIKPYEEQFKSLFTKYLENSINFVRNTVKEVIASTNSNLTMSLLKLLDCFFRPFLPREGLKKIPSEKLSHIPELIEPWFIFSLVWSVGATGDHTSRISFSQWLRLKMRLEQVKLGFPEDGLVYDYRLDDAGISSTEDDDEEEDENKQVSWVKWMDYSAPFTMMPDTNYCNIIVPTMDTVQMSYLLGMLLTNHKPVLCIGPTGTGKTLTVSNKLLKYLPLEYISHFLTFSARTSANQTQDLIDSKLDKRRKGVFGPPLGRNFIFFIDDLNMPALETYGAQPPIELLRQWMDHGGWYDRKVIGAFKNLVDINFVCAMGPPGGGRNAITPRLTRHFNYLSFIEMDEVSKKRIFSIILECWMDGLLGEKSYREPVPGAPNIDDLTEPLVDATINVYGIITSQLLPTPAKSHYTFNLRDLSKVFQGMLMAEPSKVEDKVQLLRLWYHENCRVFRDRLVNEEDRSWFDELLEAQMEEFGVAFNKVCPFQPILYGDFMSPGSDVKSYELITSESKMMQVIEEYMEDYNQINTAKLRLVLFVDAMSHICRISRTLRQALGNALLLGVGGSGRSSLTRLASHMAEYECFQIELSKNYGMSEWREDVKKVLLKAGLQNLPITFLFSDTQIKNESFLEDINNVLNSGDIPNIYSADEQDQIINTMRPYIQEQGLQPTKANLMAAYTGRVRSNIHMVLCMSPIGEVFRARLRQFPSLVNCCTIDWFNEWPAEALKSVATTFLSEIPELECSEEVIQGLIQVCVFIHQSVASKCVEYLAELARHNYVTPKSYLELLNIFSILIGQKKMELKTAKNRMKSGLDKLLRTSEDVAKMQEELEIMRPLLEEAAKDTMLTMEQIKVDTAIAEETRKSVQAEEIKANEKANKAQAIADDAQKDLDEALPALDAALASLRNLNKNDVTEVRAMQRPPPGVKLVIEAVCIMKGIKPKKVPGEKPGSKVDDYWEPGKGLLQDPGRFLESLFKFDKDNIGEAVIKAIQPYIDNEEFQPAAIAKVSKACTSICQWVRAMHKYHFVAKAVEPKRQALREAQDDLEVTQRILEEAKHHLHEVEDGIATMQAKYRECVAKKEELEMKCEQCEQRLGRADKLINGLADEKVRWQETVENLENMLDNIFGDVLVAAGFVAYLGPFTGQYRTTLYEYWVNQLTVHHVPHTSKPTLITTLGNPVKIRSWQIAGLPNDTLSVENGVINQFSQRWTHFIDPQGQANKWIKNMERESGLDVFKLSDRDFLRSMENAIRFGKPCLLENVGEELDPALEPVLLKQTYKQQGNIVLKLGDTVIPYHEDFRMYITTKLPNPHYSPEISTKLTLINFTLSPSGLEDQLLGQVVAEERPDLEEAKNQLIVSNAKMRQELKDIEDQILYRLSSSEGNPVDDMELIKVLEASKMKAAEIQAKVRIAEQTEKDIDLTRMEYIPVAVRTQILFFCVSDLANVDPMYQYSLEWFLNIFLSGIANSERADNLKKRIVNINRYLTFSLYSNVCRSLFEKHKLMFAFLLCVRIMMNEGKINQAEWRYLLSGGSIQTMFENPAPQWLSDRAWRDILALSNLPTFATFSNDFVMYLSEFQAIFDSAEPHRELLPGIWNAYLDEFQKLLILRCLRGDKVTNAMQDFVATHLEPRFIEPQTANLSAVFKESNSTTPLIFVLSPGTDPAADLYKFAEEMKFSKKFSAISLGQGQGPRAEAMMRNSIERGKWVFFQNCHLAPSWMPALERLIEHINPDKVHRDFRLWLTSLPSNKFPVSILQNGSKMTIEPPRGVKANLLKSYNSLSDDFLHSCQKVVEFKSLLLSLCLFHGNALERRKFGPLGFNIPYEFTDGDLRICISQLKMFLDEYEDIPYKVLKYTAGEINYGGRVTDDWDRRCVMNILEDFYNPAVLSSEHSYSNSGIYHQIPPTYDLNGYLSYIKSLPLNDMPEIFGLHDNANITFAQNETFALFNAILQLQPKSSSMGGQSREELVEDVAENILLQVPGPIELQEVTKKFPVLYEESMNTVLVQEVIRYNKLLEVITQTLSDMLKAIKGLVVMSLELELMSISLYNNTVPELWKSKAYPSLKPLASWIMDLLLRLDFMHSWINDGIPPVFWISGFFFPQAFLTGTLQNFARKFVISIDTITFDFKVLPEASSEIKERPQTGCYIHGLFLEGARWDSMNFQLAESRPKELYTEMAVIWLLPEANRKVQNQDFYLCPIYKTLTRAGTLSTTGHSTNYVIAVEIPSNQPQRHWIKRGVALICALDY
UniProt Q386C6: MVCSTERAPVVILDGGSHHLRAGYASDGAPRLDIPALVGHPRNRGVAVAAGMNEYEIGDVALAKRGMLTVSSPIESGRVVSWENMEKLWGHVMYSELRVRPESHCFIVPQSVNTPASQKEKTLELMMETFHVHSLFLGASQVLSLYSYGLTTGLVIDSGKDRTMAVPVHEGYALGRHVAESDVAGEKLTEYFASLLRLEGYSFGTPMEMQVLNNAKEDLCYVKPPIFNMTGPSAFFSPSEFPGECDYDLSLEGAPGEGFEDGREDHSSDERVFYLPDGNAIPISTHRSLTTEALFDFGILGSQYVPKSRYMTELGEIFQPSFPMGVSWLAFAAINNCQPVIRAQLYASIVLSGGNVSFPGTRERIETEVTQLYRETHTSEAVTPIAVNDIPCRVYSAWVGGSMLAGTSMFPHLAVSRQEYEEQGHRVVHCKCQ

T1: TTC29 (mouse testis) (mouse (endogenous in testis)) (UniProt Q80VM3)
T1 sequence: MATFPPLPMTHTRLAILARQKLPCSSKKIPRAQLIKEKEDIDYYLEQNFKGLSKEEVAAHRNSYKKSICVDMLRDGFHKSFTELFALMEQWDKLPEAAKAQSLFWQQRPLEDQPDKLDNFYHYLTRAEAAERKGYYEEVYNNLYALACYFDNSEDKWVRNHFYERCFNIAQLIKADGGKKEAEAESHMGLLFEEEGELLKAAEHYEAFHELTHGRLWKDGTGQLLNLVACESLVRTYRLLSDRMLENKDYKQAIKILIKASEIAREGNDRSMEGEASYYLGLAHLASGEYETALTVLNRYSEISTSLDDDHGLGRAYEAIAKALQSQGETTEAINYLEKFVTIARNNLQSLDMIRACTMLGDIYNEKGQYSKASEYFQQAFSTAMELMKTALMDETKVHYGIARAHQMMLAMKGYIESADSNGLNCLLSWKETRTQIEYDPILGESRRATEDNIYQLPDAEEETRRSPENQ


What was measured:
[1] = biological target: T1, TTC29 (mouse testis) (mouse (endogenous in testis)); experiment: affinity purification with mass spectrometry; testis lysates of WT and Ttc29-/- L5 and L7 mice (50 mM Tris-HCl pH 8, 150 mM NaCl, 10 mM MgCl2, 0.5% NP40); rabbit polyclonal TTC29 antibody, Protein A/G magnetic beads; four replicates for each genotype; MS/MS
[2] = biological target: TbTAX-1HA (T. brucei ortholog of ZMYND12, Tb927.9.10370) (Trypanosoma brucei) (UniProt Q38DX5); experiment: affinity purification with mass spectrometry; 1.8 x 10^9 T. brucei cells, IP buffer without DTT, anti-HA and anti-Ty1 IPs on Protein-G Dynabeads; nanoLC-MS/MS, label-free quantification, enrichment fold >=2
[3] = biological target: TbTTC29Ty1 (Tb927.3.1990) (Trypanosoma brucei) (UniProt Q57ZB2); experiment: as above

binding [1] | Molecule | binding [2] | binding [3]
binds | DNAH1 (mouse testis) (from UniProt E9Q8T7 1-4250) |  | 
 | Tb927.11.3880, a flagellar actin-like protein (from UniProt Q386C6) | binds | binds
binds | DNALI1 (mouse testis) (protein, UniProt Q8BVN8 1-258) MIPPADSLLKYDTPVLVSRNTEKRSPTARPLKVTIQQPGPSSTSPQPPKAKLPSTSCVPDPTKQAEEILNAILPPREWVEDTQLWIQQVSSTPSTRMDVVHLQEQLDLKLQQRQARETGICPVRRELYSQCFDELIREVTINCAERGLLLLRVRDEIHMTIAAYQTLYESSVAFGMRKALQAEQGKSDMERKITELETEKRDLERQVNEQKAKCEATEKRESERRQVEEKKHNEEIQFLKRTNQQLKAQLEGIIAPKK |  | 

Results are given in words; binding and its absence hold for the method and conditions named. In cells and extracts the contact can be indirect. These calls come from enrichment with a bait or labelling near it, and not all partners need be listed.
